From patent publication US20100041694A1, “AGRICULTURAL COMPOSITION FOR CONTROLLING OR PREVENTING PLANT DISEASES CAUSED BY PLANT PATHOGENIC MICROBES” (Sumitomo Chemical Company, Limited, priority 2007, published 2010)
Some entries share one result that the patent states for a list of compounds.

What was measured:
Type in all cases: in vivo
Sclerotinia sclerotiorum = assay: Preventing infection by cucumber Sclerotinia rot, foliage application; conditions: cucumber (Sagami-Hanjiro), flowable formulation 500 ppm foliage application, then inoculation; 18° C. high humidity 4 days
Fusarium oxysporum = assay: Preventing infection by tomato wilt by soil treatment (irrigation); conditions: tomato (Patio) in contaminated soil, 10 mg compound per pot by soil irrigation, 1 month
[1] = tested on: Verticillium albo-atrum, V. dahliae, V. nigrescens; assay: Potato blue stem, soil irrigation treatment; conditions: potato (Danshaku) in contaminated soil, 10 mg compound per pot by soil irrigation, 2 months
Gibberella fujikuroi = assay: Rice bakanae disease, seed treatment; conditions: contaminated unhulled rice, seed treatment 200 g compound per 100 kg seeds, 1 month
Gaeumannomyces graminis = assay: Malt damping off, seed treatment; conditions: contaminated malt seeds, seed treatment 200 g compound per 100 kg seeds, 1 month

Row | Compound | infected areas of treated plants relative to infected areas of untreated plants (Sclerotinia sclerotiorum) [%] | blotches in treated plants (Fusarium oxysporum) | growth of treated plants (Fusarium oxysporum) | blotches in treated plants [1] | growth of treated plants [1] | growth of treated plants (Gibberella fujikuroi) | growth of treated plants (Gaeumannomyces graminis)
1 | O=C(NCc1ccc(Oc2ccccc2)cc1)c1ccc2ncccc2c1 [Compound 3] | ≤ 10 | no blotches are found | favorably grow at a level equivalent to that of plants that grow have in noncontaminated soil | no blotches are found | favorably grow at a level equivalent to that of plants that grow in noncontaminated soil | favorably grow at a level equivalent to that of plants that have grown from noncontaminated unhulled rice | favorably grow at a level equivalent to that of plants that grow from noncontaminated seeds
2 | O=C(NCc1ccc(O)cc1)c1ccc2ncccc2c1 [Compound 8] | ≤ 10 | no blotches are found | favorably grow at a level equivalent to that of plants that grow have in noncontaminated soil | no blotches are found | favorably grow at a level equivalent to that of plants that grow in noncontaminated soil | favorably grow at a level equivalent to that of plants that have grown from noncontaminated unhulled rice | favorably grow at a level equivalent to that of plants that grow from noncontaminated seeds
3 | O=C(NCc1ccc(OCc2cccc(F)c2)cc1)c1ccc2ncccc2c1 [Compound 10] | ≤ 10 | no blotches are found | favorably grow at a level equivalent to that of plants that grow have in noncontaminated soil | no blotches are found | favorably grow at a level equivalent to that of plants that grow in noncontaminated soil | favorably grow at a level equivalent to that of plants that have grown from noncontaminated unhulled rice | favorably grow at a level equivalent to that of plants that grow from noncontaminated seeds
4 | O=C(NCc1cccc(Oc2ccc(F)cc2)c1)c1ccc2ncccc2c1 [Compound 11] | ≤ 10 | no blotches are found | favorably grow at a level equivalent to that of plants that grow have in noncontaminated soil | no blotches are found | favorably grow at a level equivalent to that of plants that grow in noncontaminated soil | favorably grow at a level equivalent to that of plants that have grown from noncontaminated unhulled rice | favorably grow at a level equivalent to that of plants that grow from noncontaminated seeds
5 | O=C(NCc1ccc(C2OCCO2)cc1)c1ccc2ncccc2c1 [Compound 13] | ≤ 10 | no blotches are found | favorably grow at a level equivalent to that of plants that grow have in noncontaminated soil | no blotches are found | favorably grow at a level equivalent to that of plants that grow in noncontaminated soil | favorably grow at a level equivalent to that of plants that have grown from noncontaminated unhulled rice | favorably grow at a level equivalent to that of plants that grow from noncontaminated seeds
6 | O=C(NCc1ccc(CCc2ccccc2)cc1)c1ccc2ncccc2c1 [Compound 14] | ≤ 10 | no blotches are found | favorably grow at a level equivalent to that of plants that grow have in noncontaminated soil | no blotches are found | favorably grow at a level equivalent to that of plants that grow in noncontaminated soil | favorably grow at a level equivalent to that of plants that have grown from noncontaminated unhulled rice | favorably grow at a level equivalent to that of plants that grow from noncontaminated seeds
7 | O=C(Cc1ccccc1)Nc1ccc2ncsc2c1 [Compound 15] | ≤ 10 | no blotches are found | favorably grow at a level equivalent to that of plants that grow have in noncontaminated soil | no blotches are found | favorably grow at a level equivalent to that of plants that grow in noncontaminated soil | favorably grow at a level equivalent to that of plants that have grown from noncontaminated unhulled rice | favorably grow at a level equivalent to that of plants that grow from noncontaminated seeds
8 | O=C(NCc1ccc(OCc2ccccn2)cc1)c1ccc2ncccc2c1 [Compound 17] | ≤ 10 | no blotches are found | favorably grow at a level equivalent to that of plants that grow have in noncontaminated soil | no blotches are found | favorably grow at a level equivalent to that of plants that grow in noncontaminated soil | favorably grow at a level equivalent to that of plants that have grown from noncontaminated unhulled rice | favorably grow at a level equivalent to that of plants that grow from noncontaminated seeds
9 | COc1ccc(CNC(=O)c2ccc3ncccc3c2)cc1C [Compound 40] | ≤ 10 | – | – | – | – | – | –
10 | CCCCCOc1cccc(CNC(=O)c2ccc3ncsc3c2)c1 [Compound 194] | – | no blotches are found | favorably grow at a level equivalent to that of plants that grow have in noncontaminated soil | no blotches are found | favorably grow at a level equivalent to that of plants that grow in noncontaminated soil | favorably grow at a level equivalent to that of plants that have grown from noncontaminated unhulled rice | favorably grow at a level equivalent to that of plants that grow from noncontaminated seeds
11 | CCCCCCOc1cccc(CNC(=O)c2ccc3ncsc3c2)c1 [Compound 195] | – | no blotches are found | favorably grow at a level equivalent to that of plants that grow have in noncontaminated soil | no blotches are found | favorably grow at a level equivalent to that of plants that grow in noncontaminated soil | favorably grow at a level equivalent to that of plants that have grown from noncontaminated unhulled rice | favorably grow at a level equivalent to that of plants that grow from noncontaminated seeds
12 | CCCCCCCOc1cccc(CNC(=O)c2ccc3ncsc3c2)c1 [Compound 196] | – | no blotches are found | favorably grow at a level equivalent to that of plants that grow have in noncontaminated soil | no blotches are found | favorably grow at a level equivalent to that of plants that grow in noncontaminated soil | favorably grow at a level equivalent to that of plants that have grown from noncontaminated unhulled rice | favorably grow at a level equivalent to that of plants that grow from noncontaminated seeds
13 | O=C(NCc1cccc(F)c1)c1ccc2ncsc2c1 [Compound 197] | – | no blotches are found | favorably grow at a level equivalent to that of plants that grow have in noncontaminated soil | no blotches are found | favorably grow at a level equivalent to that of plants that grow in noncontaminated soil | favorably grow at a level equivalent to that of plants that have grown from noncontaminated unhulled rice | favorably grow at a level equivalent to that of plants that grow from noncontaminated seeds
14 | O=C(NCc1ccc(F)cc1)c1ccc2ncsc2c1 [Compound 198] | – | no blotches are found | favorably grow at a level equivalent to that of plants that grow have in noncontaminated soil | no blotches are found | favorably grow at a level equivalent to that of plants that grow in noncontaminated soil | favorably grow at a level equivalent to that of plants that have grown from noncontaminated unhulled rice | favorably grow at a level equivalent to that of plants that grow from noncontaminated seeds
15 | O=C(NCc1ccc(Oc2cccc(Cl)c2)s1)c1ccc2ncsc2c1 [Compound 203] | – | no blotches are found | favorably grow at a level equivalent to that of plants that grow have in noncontaminated soil | no blotches are found | favorably grow at a level equivalent to that of plants that grow in noncontaminated soil | favorably grow at a level equivalent to that of plants that have grown from noncontaminated unhulled rice | favorably grow at a level equivalent to that of plants that grow from noncontaminated seeds
